Values of other authors as cited in patent US7468391B2, “Methods for treating retinoid responsive disorders using selective inhibitors of CYP26A and CYP26B” (Allergan, Inc., priority 2003, dated 2008).
For at least one compound, name, drawing or mass did not settle the structure.

Tested on: emphysema in a rat model
Settings: Massaro and Massaro (1997); cited from earlier work

CC1=C(/C=C/C(C)=C/C=C/C(C)=C/C(=O)O)C(C)(C)CCC1 [retinoid acid]
signs of emphysema: reverse anatomic and physiologic signs of emphysema
